We go through 14 molecules from patent US12521402B2, “Biomarker and drug combinations for heart failure prediction” (Endothelium Scanning Nanotechnology Limited, priority 2022, dated 2026).

The data set is described as follows: Saliva proteomics: biomarker quantification by mass spectrometry SWATH in participants at risk of heart failure vs controls. Also on record: species or system human. The following applies: saliva; for Control vs Risk: differential expression (fold) control vs 'at risk' group; for AtRisk average: 'at risk' of heart failure group mean; for AtRisk average / Control average: mass spectrometry SWATH quantification, 20 samples; for Control average: control group mean.

B1: LV321 (protein, UniProt P80748 18-117, looked up)
Immunoglobulin lambda …: VTSYVLTQPPSVSVAPGQTARITCGGNNIGSKSVHWYQQKPGQAPVLVVYDDSDRPSGIPERFSGSNSGNTATLTISRVEAGDEADYYCQVWDSSSDHPT
B1: the “Control vs Risk” value came out at 2.27, the AtRisk average is recorded as 210,897 ng/ml and the Control average is on record as 479,593 ng/ml.

B2: CYTA (protein, UniProt P01040 1-98, looked up)
Cystatin-A: MIPGGLSEAKPATPEIQEIVDKVKPQLEEKTNETYGKLEAVQYKTQVVAGTNYYIKVRAGDNKYMHLKVFKSLPGQNEDLVLTGYQVDKNKDDELTGF
With B2, the “Control vs Risk” value is 2.17, the AtRisk average is reported as 968,059 ng/ml and the Control average is recorded as 446,666 ng/ml.

B3: A2GL (protein, UniProt P02750 36-347, looked up)
Leucine-rich …: VTLSPKDCQVFRSDHGSSISCQPPAEIPGYLPADTVHLAVEFFNLTHLPANLLQGASKLQELHLSSNGLESLSPEFLRPVPQLRVLDLTRNALTGLPPGLFQASATLDTLVLKENQLEVLEVSWLHGLKALGHLDLSGNRLRKLPPGLLANFTLLRTLDLGENQLETLPPDLLRGPLQLERLHLEGNKLQVLGKDLLLPQPDLRYLFLNGNKLARVAAGAFQGLRQLDMLDLSNNSLASVPEGLWASLGQPNWDMRDGFDISGNPWICDQNLSDLYRWLQAQKDKMFSQNDTRCAGPEAVKGQTLLAVAKSQ
As for B3, the “Control vs Risk” value is on record as 2.22, the AtRisk average is 1,044,615 ng/ml and the Control average was 471,501 ng/ml.

B4: TBC13 (protein, UniProt Q9NVG8 1-400, looked up)
TBC1 domain family member 13: MSSLHKSRIADFQDVLKEPSIALEKLRELSFSGIPCEGGLRCLCWKILLNYLPLERASWTSILAKQRELYAQFLREMIIQPGIAKANMGVSREDVTFEDHPLNPNPDSRWNTYFKDNEVLLQIDKDVRRLCPDISFFQRATDYPCLLILDPQNEFETLRKRVEQTTLKSQTVARNRSGVTNMSSPHKNSVPSSLNEYEVLPNGCEAHWEVVERILFIYAKLNPGIAYVQGMNEIVGPLYYTFATDPNSEWKEHAEADTFFCFTNLMAEIRDNFIKSLDDSQCGITYKMEKVYSTLKDKDVELYLKLQEQNIKPQFFAFRWLTLLLSQEFLLPDVIRIWDSLFADDNRFDFLLLVCCAMLMLIREQLLEGDFTVNMRLLQDYPITDVCQILQKAKELQDSK
Take B4: the “Control vs Risk” value is on record as 2.16, the AtRisk average was 20,263 ng/ml and the Control average is recorded as 43,672 ng/ml.

B5: FM25G (protein, UniProt B3EWG6 1-89, looked up)
Protein FAM25G: MLGGLGKLAAEGLAHRTEKATEGAIHAVEEVVKEVVGHAKETGEKAIAEAIKKAQESGDKKMKEITETVTNTVTNAITHAAESLDKLGQ
On to B5, for which the “Control vs Risk” value turned out to be 2.36, the AtRisk average is 2,006,327 ng/ml and the Control average is 848,646 ng/ml.

B6: SARNP (protein, UniProt P82979 2-210, looked up)
SAP domain-containing …: ATETVELHKLKLAELKQECLARGLETKGIKQDLIHRLQAYLEEHAEEEANEEDVLGDETEEEETKPIELPVKEEEPPEKTVDVAAEKKVVKITSEIPQTERMQKRAERFNVPVSLESKKAARAARFGISSVPTKGLSSDNKPMVNLDKLKERAQRFGLNVSSISRKSEDDEKLKKRKERFGIVTSSAGTGTTEDTEAKKRKRAERFGIA
For the molecule B6, the “Control vs Risk” value amounted to 2.21, the AtRisk average is reported as 96,270 ng/ml and the Control average is 213,117 ng/ml.

B7: TWF2 (protein, UniProt Q6IBS0 2-349, looked up)
Twinfilin-2: AHQTGIHATEELKEFFAKARAGSVRLIKVVIEDEQLVLGASQEPVGRWDQDYDRAVLPLLDAQQPCYLLYRLDSQNAQGFEWLFLAWSPDNSPVRLKMLYAATRATVKKEFGGGHIKDELFGTVKDDLSFAGYQKHLSSCAAPAPLTSAERELQQIRINEVKTEISVESKHQTLQGLAFPLQPEAQRALQQLKQKMVNYIQMKLDLERETIELVHTEPTDVAQLPSRVPRDAARYHFFLYKHTHEGDPLESVVFIYSMPGYKCSIKERMLYSSCKSRLLDSVEQDFHLEIAKKIEIGDGAELTAEFLYDEVHPKQHAFKQAFAKPKGPGGKRGHKRLIRGPGENGDDS
Consider B7, for which the “Control vs Risk” value stood at 2.40, the AtRisk average is recorded as 72,008 ng/ml and the Control average is listed as 172,789 ng/ml.

B8: SAA1 (protein, UniProt P0DJI8 19-122, looked up)
Serum amyloid A-1 protein: RSFFSFLGEAFDGARDMWRAYSDMREANYIGSDKYFHARGNYDAAKRGPGGAWAAEVITDARENIQRFFGHGAEDSLADQAANEWGRSGKDPNHFRPAGLPEKY
In the case of B8, the “Control vs Risk” value came to 2.30, the AtRisk average is given as 1,812,419 ng/ml and the Control average is given as 788,909 ng/ml.

B9: UBE2K (protein, UniProt P61086 2-200, looked up)
Ubiquitin-conjugating enzyme …: ANIAVQRIKREFKEVLKSEETSKNQIKVDLVDENFTELRGEIAGPPDTPYEGGRYQLEIKIPETYPFNPPKVRFITKIWHPNISSVTGAICLDILKDQWAAAMTLRTVLLSLQALLAAAEPDDPQDAVVANQYKQNPEMFKQTARLWAHVYAGAPVSSPEYTKKIENLCAMGFDRNAVIVALSSKSWDVETATELLLSN
As for B9, the “Control vs Risk” value was 2.19, the AtRisk average is given as 50,294 ng/ml and the Control average was 22,994 ng/ml.

B10: PDZ11 (protein, UniProt Q5EBL8 1-140, looked up)
PDZ domain-containing protein …: MDSRIPYDDYPVVFLPAYENPPAWIPPHERVHHPDYNNELTQFLPRTITLKKPPGAQLGFNIRGGKASQLGIFISKVIPDSDAHRAGLQEGDQVLAVNDVDFQDIEHSKAVEILKTAREISMRVRFFPYNYHRQKERTVH
Take B10: the “Control vs Risk” value is 2.31, the AtRisk average is on record as 35,866 ng/ml and the Control average is listed as 82,727 ng/ml.

B11: SBSN (protein, UniProt Q6UWP8 26-590, looked up)
Suprabasin: DDPIEKVIEGINRGLSNAEREVGKALDGINSGITHAGREVEKVFNGLSNMGSHTGKELDKGVQGLNHGMDKVAHEINHGIGQAGKEAEKLGHGVNNAAGQVGKEADKLIHHGVHHGANQAGSEAGKFGQGVDNAAGQAGNEAGRFGQGVHHAAGQAGNEAGRFGQGVHHAAGQAGNEAGRFGQGAHHGLSEGWKETEKFGQGIHHAAGQVGKEAEKFGQGAHHAAGQAGNEAGRFGQGVHHGLSEGWKETEKFGQGVHHTAGQVGKEAEKFGQGAHHAAGQAGNEAGRFGQGAHHAAGQAGNEAGRFGQGVHHGLSEGWKETEKFGQGVHHAASQFGKETEKLGHGVHHGVNEAWKEAEKFGQGVHHAASQVGKEEDRVVQGLHHGVSQAGREAGQFGHDIHHTAGQAGKEGDIAVHGVQPGVHEAGKEAGQFGQGVHHTLEQAGKEADKAVQGFHTGVHQAGKEAEKLGQGVNHAADQAGKEVEKLGQGAHHAAGQAGKELQNAHNGVNQASKEANQLLNGNHQSGSSSHQGGATTTPLASGASVNTPFINLPALWRSVANIMP
On to B11, for which the “Control vs Risk” value was found to be 2.26, the AtRisk average is recorded as 2,695,523 ng/ml and the Control average is on record as 1,193,666 ng/ml.

B12: ICAM1 (protein, UniProt P05362 28-532, looked up)
Intercellular adhesion …: QTSVSPSKVILPRGGSVLVTCSTSCDQPKLLGIETPLPKKELLLPGNNRKVYELSNVQEDSQPMCYSNCPDGQSTAKTFLTVYWTPERVELAPLPSWQPVGKNLTLRCQVEGGAPRANLTVVLLRGEKELKREPAVGEPAEVTTTVLVRRDHHGANFSCRTELDLRPQGLELFENTSAPYQLQTFVLPATPPQLVSPRVLEVDTQGTVVCSLDGLFPVSEAQVHLALGDQRLNPTVTYGNDSFSAKASVSVTAEDEGTQRLTCAVILGNQSQETLQTVTIYSFPAPNVILTKPEVSEGTEVTVKCEAHPRAKVTLNGVPAQPLGPRAQLLLKATPEDNGRSFSCSATLEVAGQLIHKNQTRELRVLYGPRLDERDCPGNWTWPENSQQTPMCQAWGNPLPELKCLKDGTFPLPIGESVTVTRDLEGTYLCRARSTQGEVTRKVTVNVLSPRYEIVIITVVAAAVIMGTAGLSTYLYNRQRKIKKYRLQQAQKGTPMKPNTQATPP
For the molecule B12, the “Control vs Risk” value was determined as 2.26 and the AtRisk average is 45,436 ng/ml.

B13: IGA2 (protein, UniProt P01877 1-391, looked up)
Immunoglobulin heavy constant …: ASPTSPKVFPLSLDSTPQDGNVVVACLVQGFFPQEPLSVTWSESGQNVTARNFPPSQDASGDLYTTSSQLTLPATQCPDGKSVTCHVKHYTNSSQDVTVPCRVPPPPPCCHPRLSLHRPALEDLLLGSEANLTCTLTGLRDASGATFTWTPSSGKSAVQGPPERDLCGCYSVSSVLPGCAQPWNHGETFTCTAAHPELKTPLTANITKSGNTFRPEVHLLPPPSEELALNELVTLTCLARGFSPKDVLVRWLQGSQELPREKYLTWASRQEPSQGTTTYAVTSILRVAAEDWKKGETFSCMVGHEALPLAFTQKTIDRMAGSCCVADWQMPPPYVVLDLPQETLEEETPGANLWPTTITFLTLFLLSLFYSTALTVTSVRGPSGKREGPQY
On to B13, for which the “Control vs Risk” value stood at 2.28, the AtRisk average was 94,850,425 ng/ml and the Control average is 216,137,561 ng/ml.

B14: HEP2 (protein, UniProt P05546 20-499, looked up)
Heparin cofactor 2: GSKGPLDQLEKGGETAQSADPQWEQLNNKNLSMPLLPADFHKENTVTNDWIPEGEEDDDYLDLEKIFSEDDDYIDIVDSLSVSPTDSDVSAGNILQLFHGKSRIQRLNILNAKFAFNLYRVLKDQVNTFDNIFIAPVGISTAMGMISLGLKGETHEQVHSILHFKDFVNASSKYEITTIHNLFRKLTHRLFRRNFGYTLRSVNDLYIQKQFPILLDFKTKVREYYFAEAQIADFSDPAFISKTNNHIMKLTKGLIKDALENIDPATQMMILNCIYFKGSWVNKFPVEMTHNHNFRLNEREVVKVSMMQTKGNFLAANDQELDCDILQLEYVGGISMLIVVPHKMSGMKTLEAQLTPRVVERWQKSMTNRTREVLLPKFKLEKNYNLVESLKLMGIRMLFDKNGNMAGISDQRIAIDLFKHQGTITVNEEGTQATTVTTVGFMPLSTQVRFTVDRPFLFLIYEHRTSCLLFMGRVANPSRS
For the molecule B14, the “Control vs Risk” value turned out to be 2.42, the AtRisk average is on record as 326,072 ng/ml and the Control average is 788,214 ng/ml.
